Experimental data taken from the supplement of paper PMC4604168 (melanoma cell lines).
The other results are listed elsewhere or left out. Many values rest on one well or one pass, so single values are uncertain.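 The apoptosis fraction was the count of cleaved-PARP antibody-stained nuclei relative to all DNA-stained nuclei, imaged in 1,536-well plates. Screening doses were set so most cells survived, and baseline and induced cleaved-PARP levels vary greatly across cell lines.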

What follows are molecules tested on MeWo (assay: cleaved PARP positive nuclei fraction relative to DMSO control; melanoma cells; higher = more apoptosis). Details: library dose: low library concentration; 72 h.

Structure (SMILES) | cleaved PARP positive nuclei fraction [%]
O=C(CCCCCCC(=O)Nc1ccccc1)NO [vorinostat] + CCCCCCCCCCCC1=C(O)C(=O)C=C(O)C1=O [Embelin] (first compound 0.08 µM, partner dose 1.2 µM) | 110
Cn1nnc2c(C(N)=O)ncn2c1=O [temozolomide] + Cn1cc(/C=C2\C(=O)Nc3cccnc32)c2ccccc21 [GW441756] (first compound 2 µM, partner dose 0.4 µM) | 48.7
Nc1cccc2c1CN(C1CCC(=O)NC1=O)C2=O (stereo unspecified) [lenalidomide] + COc1cc2ncnc(Nc3ccc(Oc4ccccc4)cc3)c2cc1OC [SrcI1] (first compound 1 µM, partner dose 2 µM) | 207
COc1cc(Nc2ncc(F)c(Nc3ccc4c(n3)NC(=O)C(C)(C)O4)n2)cc(OC)c1OC [Tamatinib] + CCc1ccc(CCOc2ccc(CC3SC(=O)NC3=O)cc2)nc1 [pioglitazone] (first compound 0.4 µM, partner dose 2 µM) | 34.8
Cc1nc(Nc2ncc(C(=O)Nc3c(C)cccc3Cl)s2)cc(N2CCN(CCO)CC2)n1 [dasatanib] + COc1cc(N2CCC(N3CCN(C)CC3)CC2)ccc1Nc1ncc(Cl)c(Nc2ccccc2S(=O)(=O)C(C)C)n1 [NVP-TAE684] (first compound 0.004 µM, partner dose 0.08 µM) | 55.7
Cn1c(Nc2ccc(C(F)(F)F)cc2)nc2cc(Oc3ccnc(-c4ncc(C(F)(F)F)[nH]4)c3)ccc21 + Cc1cc([N+](=O)[O-])ccc1NS(=O)(=O)c1cc(Cl)ccc1Cl [FH535] (first compound 0.08 µM, partner dose 1 µM) | 89.3
O=C(CCCCCCC(=O)Nc1ccccc1)NO [vorinostat] + O=S(=O)(c1ccccc1)N(CC(F)(F)F)c1ccc(C(O)(C(F)(F)F)C(F)(F)F)cc1 [T0901317] (first compound 0.08 µM, partner dose 1.4 µM) | 185
CC(C)(C)c1cnc(CSc2cnc(NC(=O)C3CCNCC3)s2)o1 + CCc1ccc(CCOc2ccc(CC3SC(=O)NC3=O)cc2)nc1 [pioglitazone] (first compound 0.01 µM, partner dose 2 µM) | 99.3
COc1cc(Nc2ncc(F)c(Nc3ccc4c(n3)NC(=O)C(C)(C)O4)n2)cc(OC)c1OC [Tamatinib] + Cn1cc(/C=C2\C(=O)Nc3cccnc32)c2ccccc21 [GW441756] (first compound 0.4 µM, partner dose 0.4 µM) | 118
C#Cc1cccc(Nc2ncnc3cc(OCCOC)c(OCCOC)cc23)c1 [erlotinib] + N#Cc1c(O)c2c(-c3ccc(-c4ccccc4O)cc3)csc2[nH]c1=O [A769662] (first compound 0.8 µM, partner dose 2 µM) | 56.3
OCCn1cc(-c2cnc3nnn(Cc4ccc5ncccc5c4)c3n2)cn1 + COc1cc(N2CCC(N3CCN(C)CC3)CC2)ccc1Nc1ncc(Cl)c(Nc2ccccc2S(=O)(=O)C(C)C)n1 [NVP-TAE684] (first compound 1 µM, partner dose 0.08 µM) | 102
O=C(Nc1cccc(Cl)c1)Nc1ncc(CCNc2ncnc3ccsc23)s1 + COc1ccc(COc2ccc(Cc3cnc(N)nc3N)cc2OC)cc1 [GW2580] (first compound 0.0008 µM, partner dose 1 µM) | 31.8
Cc1nc(Nc2ncc(C(=O)Nc3c(C)cccc3Cl)s2)cc(N2CCN(CCO)CC2)n1 [dasatanib] + O=C1NC(=O)/C(=C/c2ccc(-c3ccc(F)cc3O)o2)S1 [AS252424] (first compound 0.004 µM, partner dose 1 µM) | 66.2
C[C@]1(c2nc3c(C(N)=O)cccc3[nH]2)CCCN1 [Veliparib] + Cc1cc([N+](=O)[O-])ccc1NS(=O)(=O)c1cc(Cl)ccc1Cl [FH535] (first compound 1.4 µM, partner dose 1 µM) | 124
C[C@@H]1CCN(C(=O)CC#N)C[C@@H]1N(C)c1ncnc2[nH]ccc12 + COc1cc2ncnc(Nc3ccc(Oc4ccccc4)cc3)c2cc1OC [SrcI1] (first compound 1 µM, partner dose 2 µM) | 49.2
CC1(C)NC(=O)N(c2ccc([N+](=O)[O-])c(C(F)(F)F)c2)C1=O [nilutamide] + c1cc(-c2cnn3cc(-c4ccc(OCCN5CCCCC5)cc4)cnc23)ccn1 [Dorsomorphin] (first compound 1 µM, partner dose 0.4 µM) | 143

An excerpt from further up, for reference:
Structure (SMILES) | cleaved PARP positive nuclei fraction [%]
OCCn1cc(-c2cnc3nnn(Cc4ccc5ncccc5c4)c3n2)cn1 + COc1cc(N2CCC(N3CCN(C)CC3)CC2)ccc1Nc1ncc(Cl)c(Nc2ccccc2S(=O)(=O)C(C)C)n1 [NVP-TAE684] (first compound 1 µM, partner dose 0.08 µM) | 102
O=C(Nc1cccc(Cl)c1)Nc1ncc(CCNc2ncnc3ccsc23)s1 + COc1ccc(COc2ccc(Cc3cnc(N)nc3N)cc2OC)cc1 [GW2580] (first compound 0.0008 µM, partner dose 1 µM) | 31.8
